The other results are listed elsewhere or left out. Repeats are few or missing, and single values can be far off.
tested on: Saccharomyces cerevisiae BY4743; experiment: growth (OD600) with compound + IPBC relative to untreated control; higher = less growth inhibition; details: compound concentration: 133 uM; IPBC concentration: 0.5 ug/ml; 20 h
Procedure: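 NMCCC compounds (133 uM) combined with IPBC (0.5 ug/ml) against Saccharomyces cerevisiae BY4743 in YPD, 96-well plates. Growth was read as OD600 at 20 h and expressed as % of the untreated control. Single pass.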

Row | Structure (SMILES) | growth [%]
1 | CN1\C(=C/C(=N\[S]1(=O)=O)C2=CC=C(C)C=C2)C(=O)NC(C)(C)CO + CCCCNC(=O)OCC#CI [3-iodo-2-propynyl butylcarbamate (IPBC)] | 106
2 | Cc1ccc2c(c1)NC(C(C)C)NS2(=O)=O (stereo not drawn) + CCCCNC(=O)OCC#CI [3-iodo-2-propynyl butylcarbamate (IPBC)] | 83.3
3 | CCOc1ccc(CC(=O)NCc2cn3c(C)csc3n2)cc1 + CCCCNC(=O)OCC#CI [3-iodo-2-propynyl butylcarbamate (IPBC)] | 99.5
4 | COC(=O)c1c(C)[nH]c(C(=O)CN2CCCC2c2cccn2C)c1C (stereo not drawn) + CCCCNC(=O)OCC#CI [3-iodo-2-propynyl butylcarbamate (IPBC)] | 107
5 | COC1=CC=C(NC(=O)\C2=C(/C)C(=O)OC23CCC(C)CC3)C=C1Cl (stereo not drawn) + CCCCNC(=O)OCC#CI [3-iodo-2-propynyl butylcarbamate (IPBC)] | 101
6 | COC(=O)C(Nc1nccs1)(OC)C(F)(F)F (stereo not drawn) + CCCCNC(=O)OCC#CI [3-iodo-2-propynyl butylcarbamate (IPBC)] | 82.1
7 | Cc1cc(NS(=O)(=O)c2ccc(NC(=O)N[C@H](C(=O)O)C(C)C)cc2)no1 + CCCCNC(=O)OCC#CI [3-iodo-2-propynyl butylcarbamate (IPBC)] | 97.3
8 | CC(=O)N1\N=C(/OC12CCCC2)C3=CC=C(C=C3)C(C)(C)C + CCCCNC(=O)OCC#CI [3-iodo-2-propynyl butylcarbamate (IPBC)] | 103

Shown as a markdown table: part of the list above

| Row | Structure (SMILES) | growth [%] |
| --- | --- | --- |
| 2 | Cc1ccc2c(c1)NC(C(C)C)NS2(=O)=O (stereo not drawn) + CCCCNC(=O)OCC#CI [3-iodo-2-propynyl butylcarbamate (IPBC)] | 83.3 |
| 4 | COC(=O)c1c(C)[nH]c(C(=O)CN2CCCC2c2cccn2C)c1C (stereo not drawn) + CCCCNC(=O)OCC#CI [3-iodo-2-propynyl butylcarbamate (IPBC)] | 107 |
